Assay results as given in PMC10926643.
Results are given in words; binding and its absence hold for the method and conditions named. For some assays here: In cells and extracts the contact can be indirect. Some binding calls cover weakened binding; strength is not graded here. Where a sequence is shown, tags or fusion partners need not be part of it.

By UniProt entry, the sequences of proteins in these tests, tags left out.
UniProt P47929: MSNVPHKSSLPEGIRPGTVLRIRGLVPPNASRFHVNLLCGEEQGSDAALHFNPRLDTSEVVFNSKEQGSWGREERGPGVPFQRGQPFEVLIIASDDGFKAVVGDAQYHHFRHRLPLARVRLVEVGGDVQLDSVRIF
UniProt P09382: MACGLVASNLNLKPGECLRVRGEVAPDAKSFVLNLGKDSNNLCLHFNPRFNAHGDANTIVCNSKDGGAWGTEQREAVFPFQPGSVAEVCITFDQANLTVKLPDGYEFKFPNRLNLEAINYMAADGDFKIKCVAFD
UniProt P17931: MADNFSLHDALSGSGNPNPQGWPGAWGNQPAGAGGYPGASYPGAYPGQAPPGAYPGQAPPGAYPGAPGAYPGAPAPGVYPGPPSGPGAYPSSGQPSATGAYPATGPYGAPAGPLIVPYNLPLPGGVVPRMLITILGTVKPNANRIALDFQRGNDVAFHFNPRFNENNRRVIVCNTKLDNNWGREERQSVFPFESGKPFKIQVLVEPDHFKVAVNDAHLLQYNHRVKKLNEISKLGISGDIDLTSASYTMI
UniProt O00214: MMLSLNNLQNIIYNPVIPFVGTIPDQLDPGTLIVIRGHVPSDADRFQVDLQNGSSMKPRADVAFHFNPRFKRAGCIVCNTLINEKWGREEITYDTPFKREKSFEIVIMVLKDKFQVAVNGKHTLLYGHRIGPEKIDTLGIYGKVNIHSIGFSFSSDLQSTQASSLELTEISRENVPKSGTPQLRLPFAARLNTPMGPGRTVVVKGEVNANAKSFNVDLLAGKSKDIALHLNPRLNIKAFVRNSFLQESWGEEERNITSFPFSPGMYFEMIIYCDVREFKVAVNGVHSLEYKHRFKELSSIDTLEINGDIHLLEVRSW

molecular target: T1, FGF12-GFP.myc (UniProt P61328); assay: proximity ligation; in situ PLA (Duolink) in fixed, permeabilised U2OS-FGF12-GFP.myc cells; mouse anti-myc antibody detecting FGF12-GFP.myc and rabbit antibodies against galectin-1, -3, -7 or -8; fluorescence microscopy
T1 sequence: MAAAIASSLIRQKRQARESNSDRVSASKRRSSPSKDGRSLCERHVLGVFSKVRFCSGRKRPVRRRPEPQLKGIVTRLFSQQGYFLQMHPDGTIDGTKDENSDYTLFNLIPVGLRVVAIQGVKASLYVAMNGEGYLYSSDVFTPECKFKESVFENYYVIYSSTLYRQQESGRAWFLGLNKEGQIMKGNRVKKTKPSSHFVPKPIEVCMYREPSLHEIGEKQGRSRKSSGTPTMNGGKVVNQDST

binding	Substance
binds	galectin-7 (endogenous, U2OS-FGF12-GFP.myc cells) (from UniProt P47929 1-136)
binds	galectin-1 (endogenous, U2OS-FGF12-GFP.myc cells) (from UniProt P09382 1-135)
binds	galectin-3 (endogenous, U2OS-FGF12-GFP.myc cells) (from UniProt P17931 1-250)
binds	galectin-8 (endogenous, U2OS-FGF12-GFP.myc cells) (from UniProt O00214 1-317)

molecular target: T2, recombinant FGF12 fused with the His-tag (UniProt P61328); assay: SPR; Biacore 3000, 25°C; His-tagged FGF12 immobilised by amine coupling on a CM4 (low density) chip at about 600 RU; galectins injected at 0.25 to 4 μM, 30 μL/min, in HBS with 0.05% Tween 20, 0.05% BSA, 0.02% NaN3, pH 7.4; KD from fitted saturation binding curves; both purified
T2 sequence: T1 sequence

binding	Substance
binds	recombinant galectin-1 (from UniProt P09382 1-135)
binds	recombinant galectin-3 (from UniProt P17931 1-250)
binds	recombinant galectin-7 (from UniProt P47929 1-136)
binds	recombinant galectin-8 (from UniProt O00214 1-317)
